Our source for the binding values is article PMC8128024.

Amino acid sequences for entries named in this document (tags omitted).
UniProt Q9Z1E3: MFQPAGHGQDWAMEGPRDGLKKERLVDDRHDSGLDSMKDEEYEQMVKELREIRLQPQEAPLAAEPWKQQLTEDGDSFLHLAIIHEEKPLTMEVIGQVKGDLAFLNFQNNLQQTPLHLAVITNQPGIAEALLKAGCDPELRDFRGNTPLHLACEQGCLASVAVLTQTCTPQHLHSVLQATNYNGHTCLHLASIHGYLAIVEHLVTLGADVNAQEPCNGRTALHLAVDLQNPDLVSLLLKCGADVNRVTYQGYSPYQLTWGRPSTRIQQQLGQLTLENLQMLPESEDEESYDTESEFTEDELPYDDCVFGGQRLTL
UniProt Q91YI4: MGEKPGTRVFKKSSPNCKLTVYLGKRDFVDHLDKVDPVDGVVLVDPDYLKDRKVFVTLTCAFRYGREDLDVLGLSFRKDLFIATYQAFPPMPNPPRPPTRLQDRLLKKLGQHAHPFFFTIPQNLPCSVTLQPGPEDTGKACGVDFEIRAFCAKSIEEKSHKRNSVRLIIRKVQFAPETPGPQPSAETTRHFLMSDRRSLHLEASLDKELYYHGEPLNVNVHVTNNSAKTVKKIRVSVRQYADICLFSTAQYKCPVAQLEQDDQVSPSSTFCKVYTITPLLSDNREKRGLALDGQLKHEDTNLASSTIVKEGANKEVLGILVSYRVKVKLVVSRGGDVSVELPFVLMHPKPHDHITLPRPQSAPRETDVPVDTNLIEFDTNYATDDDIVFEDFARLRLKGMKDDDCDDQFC

These are yes or no findings as the source states them, for the method shown. Binding seen in cells or lysates may run through a third protein. Some results given as binding are weak or reduced against the parent protein; the word gives no strength.

Test [1] has as its target IкBα (mouse (endogenous in RAW264.7)) (UniProt Q9Z1E3). Briefly: co-IP; Pierce Classic IP Kit, RAW264.7 cell lysates, endogenous proteins; cells treated with sodium butyrate (4 μmol/mL) or normal saline for 30 min (GPR43 and β-arrestin-2), or with sodium butyrate followed by LPS (1 μg/mL) half an hour later, lysates after 6 h (β-arrestin-2 and IкBα); normal IgG as negative control; Western blot; which antibody precipitated is not stated.

Test [2] has as its target T1, G-protein-coupled receptor 43 (mouse (endogenous in RAW264.7)) (UniProt Q8VCK6).
T1 sequence: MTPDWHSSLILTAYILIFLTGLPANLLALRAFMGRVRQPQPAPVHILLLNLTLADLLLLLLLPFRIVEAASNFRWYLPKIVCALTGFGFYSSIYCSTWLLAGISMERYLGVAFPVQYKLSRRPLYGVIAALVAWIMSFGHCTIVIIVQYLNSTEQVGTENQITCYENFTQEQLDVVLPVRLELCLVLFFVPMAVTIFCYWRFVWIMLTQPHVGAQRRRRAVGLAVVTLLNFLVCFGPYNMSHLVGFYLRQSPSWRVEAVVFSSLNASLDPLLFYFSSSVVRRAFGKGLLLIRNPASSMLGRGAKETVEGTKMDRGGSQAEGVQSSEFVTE
The test is described as above.

In the case of “β-arrestin-2 (from UniProt Q91YI4 1-410)”, the binding result in test [1] and in test [2] was “binds” throughout.
